Experimental data published in patent US12642788B2, “Pharmaceutical composition comprising benzimidazole derivative compound” (HK INNO.N CORPORATION, priority 2020, dated 2026).
For at least one compound, name, drawing or mass did not settle the structure.

Legend:
Assay type in all cases: in vivo, C57BL/6 male mice
[1] = tested on: colitis induced by dextran sodium sulfate (DSS); assay: Mouse model of colitis using DSS (body weight, length of large intestine, DAI); details: 30 mg/kg/day oral twice a day
Description: Mouse Model of Colitis Using DSS C57BL/6 male mice, which were eight weeks old (24.0 g), were purchased from Orient Bio, acclimated to the laboratory environment (temperature of 21±2° C. and humidity of 50±10%) for one week with a full access to feed and water, and used in an experiment. The mice were divided into a normal control group (Control, n=6), a group with induced colitis (DSS+Veh, n=8), a group dosed with tegoprazan (DSS+Tegoprazan, n=8), and a group dosed with a control drug (DSS+Rabeprazole, n=8), and the experiment was performed. To induce colitis, DSS (MPbio product, catalog No. 0216011080) was used. […] The body weight of each mouse was measured with regard to the normal control group, the group with induced colitis, the group dosed with tegoprazan, and the group dosed with the control drug. The body weight of the mouse was measured every morning from the start day of experiment (day 0), in which DSS was not administered, until the 9th day, and the body weight of the mouse, which was measured on the start day of experiment (day 0) without the administration of DSS, was converted into 100%. […] (In FIG. 2, * indicates P<0.05 and ** indicates P<0.01.) As DAI, a change in body weight, bloody stool and stool viscosity were measured every morning, and scored according to the following table 1.

[2] = tested on: colonic tissues; assay: PAS staining analysis and damage to colonic tissues, DNBS model
Description: PAS staining analysis was performed on colonic tissues obtained from each of the animal models in which DSS and DNBS had been used, the goblet cell loss was scored according to the following table 2, and the degree of tissue damage was scored according to the following table 3. [table] [table]

[3] = tested on: tight junction (intestinal permeability); assay: FITC-dextran permeability, DSS model; details: FITC value in serum 4 hours after oral FITC-dextran
Description: Four hours before the mouse was sacrificed in the mouse model of colitis using DSS, the mouse was orally dosed with FITC-dextran (80 mg/mL), after which cardiac puncture was performed to measure an FITC value in serum. Permeability (%) was converted based on the normal control group.

[4] = tested on: colitis induced by 2,4-dinitrobenzenesulfonic acid hydrate (DNBS); assay: Mouse model of colitis using DNBS (body weight, length of large intestine, DAI, survival rate); details: to 5th day, 30 mg/kg/day oral twice a day
Description: Mouse Model of Colitis Using DNBS
C57BL/6 male mice, which were eight weeks old (24.0 g), were purchased from Orient Bio, acclimated to the laboratory environment (temperature of 21±2° C. and humidity of 50±10%) for one week with a full access to feed and water, and used in an experiment.
The mice were divided into a normal control group (Control, n=6), a group with induced colitis (DNBS+Vehicle, n=8), a group dosed with tegoprazan (DNBS+Tegoprazan, n=8), and a group dosed with a control drug (DNBS+Rabeprazole, n=8), and the experiment was performed.
To induce colitis, DNBS (Sigma-Aldrich product, catalog No. 556971) was used. […]
The body weight of each mouse in the normal control group, the group with induced colitis, the group dosed with tegoprazan, and the group dosed with the control drug was measured. The body weight of the mouse was measured every morning from the start day of experiment before administration of DNBS (day 0) to the 5th day, and the body weight of the mouse before administration of DNBS on day 0 was converted into 100%. In the case of the mouse sacrificed before the end of experiment, the weight of the mouse measured the day before sacrifice was included in the data as of the last day of experiment and converted (refer to FIG. 15 for survival period and survival rate). […]

## COCCCOc1ccnc(C[S+]([O-])c2nc3ccccc3[nH]2)c1C (stereo not drawn) [control drug, rabeprazole, reference compound]
[1]; 9th day
  length of the large intestine: a decrease in the length of the large intestine similarly to the group with induced colitis
[1]; to 9th day
  disease activity index (DAI) score: results very similar to those of the group with induced colitis without any difference
[2]
  crypt damage (PAS staining): crypt damage was not alleviated
  goblet cells (PAS staining): loss of goblet cells was higher
[3]
  damage to the tight junction (FITC-dextran permeability): damage to the tight junction was not alleviated
[4]
  disease activity index (DAI) score: no big difference from the group with induced colitis
